{"source": "PubChem BioAssay AID652259 (Drosophila RNAi Screening Center, 2013)", "aim": "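Knock-downs that push a Wingless-driven reporter up or down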 (primary screen)", "cell system": "Drosophila clone 8 imaginal disc epithelial cells", "knock-down reagent": "long dsRNA against Drosophila genes", "treatment": "pathway stimulated by co-transfected Wingless expression plasmid", "detection": "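Dual luciferase reads per well after Wingless plasmid stimulation: reporter firefly light and Renilla control light; activity is firefly divided by Renilla, a ratio not deposited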", "direction": "firefly reporter light: higher = more Wg reporter light, before normalisation; Renilla control light: higher = more transfected or surviving cells", "rule for the call": "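Strong candidates differ from their plate mean by at least two out of four per-plate statistical tests; weak candidates meet just one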", "calls": "active = candidate regulator (raises or lowers reporter); inactive = not a candidate", "note": "In all, the deposit lists about 22,000 reagents; shown is a random part of those with a known target gene and a result. Of all reagents, 233 (1.1%) are marked active. 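Light values are raw, unnormalised plate reads; the ratio scores behind the reporter calls were not deposited.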 The numbers tell different reagents against one gene apart. Not stated in the record: the amount of reagent, the time to read-out, the dose of the treatment."}
{"gene knocked down": "Rab3-GEF", "dsRNA no.": 1, "firefly reporter light, replicate 1": 17072, "Renilla control light, replicate 1": 10960, "Outcome": "inactive"}
{"gene knocked down": "Rab3-GEF", "dsRNA no.": 2, "firefly reporter light, replicate 1": 16824, "Renilla control light, replicate 1": 9030, "Outcome": "inactive"}
{"gene knocked down": "Rab3-GEF", "dsRNA no.": 3, "firefly reporter light, replicate 1": 20773, "Renilla control light, replicate 1": 3746, "Outcome": "inactive"}
{"gene knocked down": "Jon25Bii", "dsRNA no.": 1, "firefly reporter light, replicate 1": 3972, "firefly reporter light, replicate 2": 9809, "Renilla control light, replicate 1": 1280, "Renilla control light, replicate 2": 2667, "Outcome": "inactive"}
{"gene knocked down": "muc", "dsRNA no.": 1, "firefly reporter light, replicate 1": 4016, "firefly reporter light, replicate 2": 10609, "Renilla control light, replicate 1": 1131, "Renilla control light, replicate 2": 3576, "Outcome": "inactive"}
{"gene knocked down": "muc", "dsRNA no.": 2, "firefly reporter light, replicate 1": 6.26e5, "firefly reporter light, replicate 2": 6.19e5, "Renilla control light, replicate 1": 2.24e5, "Renilla control light, replicate 2": 2.37e5, "Outcome": "inactive"}
{"gene knocked down": "Osbp", "dsRNA no.": 1, "firefly reporter light, replicate 1": 2256, "firefly reporter light, replicate 2": 6093, "Renilla control light, replicate 1": 1261, "Renilla control light, replicate 2": 1728, "Outcome": "inactive"}
{"gene knocked down": "CG10353", "dsRNA no.": 1, "firefly reporter light, replicate 1": 20209, "Renilla control light, replicate 1": 11331, "Outcome": "inactive"}
{"gene knocked down": "CG42814", "dsRNA no.": 1, "firefly reporter light, replicate 1": 5162, "Renilla control light, replicate 1": 1820, "Outcome": "inactive"}
{"gene knocked down": "Ice2", "dsRNA no.": 1, "firefly reporter light, replicate 1": 1872, "firefly reporter light, replicate 2": 5808, "Renilla control light, replicate 1": 1107, "Renilla control light, replicate 2": 1756, "Outcome": "inactive"}
{"gene knocked down": "fh", "dsRNA no.": 1, "firefly reporter light, replicate 1": 13972, "Renilla control light, replicate 1": 9864, "Outcome": "inactive"}
{"gene knocked down": "CG4891", "dsRNA no.": 1, "firefly reporter light, replicate 1": 7491, "Renilla control light, replicate 1": 2427, "Outcome": "inactive"}
{"gene knocked down": "crim", "dsRNA no.": 1, "firefly reporter light, replicate 1": 9591, "Renilla control light, replicate 1": 4019, "Outcome": "inactive"}
{"gene knocked down": "Lcp65APsi", "dsRNA no.": 1, "firefly reporter light, replicate 1": 5907, "Renilla control light, replicate 1": 2022, "Outcome": "inactive"}
{"gene knocked down": "Lcp65APsi", "dsRNA no.": 2, "firefly reporter light, replicate 1": 1194, "firefly reporter light, replicate 2": 11176, "Renilla control light, replicate 1": 1090, "Renilla control light, replicate 2": 3941, "Outcome": "inactive"}
{"gene knocked down": "CG1737", "dsRNA no.": 1, "firefly reporter light, replicate 1": 3194, "Renilla control light, replicate 1": 641, "Outcome": "inactive"}
{"gene knocked down": "Jon65Ai", "dsRNA no.": 1, "firefly reporter light, replicate 1": 1945, "firefly reporter light, replicate 2": 11474, "Renilla control light, replicate 1": 1274, "Renilla control light, replicate 2": 4905, "Outcome": "inactive"}

Sorted by “Renilla control light, replicate 1” (descending): 2 of the entries above.
{"gene knocked down": "CG10353", "dsRNA no.": 1, "firefly reporter light, replicate 1": 20209, "Renilla control light, replicate 1": 11331, "Outcome": "inactive"}
{"gene knocked down": "Osbp", "dsRNA no.": 1, "firefly reporter light, replicate 1": 2256, "firefly reporter light, replicate 2": 6093, "Renilla control light, replicate 1": 1261, "Renilla control light, replicate 2": 1728, "Outcome": "inactive"}
